Assay results taken from PubChem BioAssay AID2685 (National Center for Advancing Translational Sciences (NCATS), 2010).
This is one part of the list. Shown are side measurements of this screen, not its main read-out; they come without a call. The list favours compounds with an active or inconclusive main result. Potencies come from curve fits of mixed quality, noted in brackets.

Experiment: qHTS Assay for Lipid Storage Modulators in Drosophila S3 Cells;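 as to cell number change: cells counted by Cell Tracker Red CMTPX staining in the red channel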
Conditions: BODIPY lipid droplet fluorescence, 18-24 h; for cell number change: measured here: cell count max response, cells fed with added oleic acid
Method in brief: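 Drosophila S3 cells loaded with oleic acid (400 uM, as added) and compounds at several concentrations; lipid droplets imaged by 488-nm laser-scanning cytometry, 500–530 nm intensity and object ratio to cell channel. Percent activity normalized to 20 uM Triacsin C.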

[1] = measured here: lipid fluorescence (Fed channel) AC50, cells fed with added oleic acid
[2] = measured here: cell number channel AC50, cells fed with added oleic acid

Row | SMILES | cell number change [%] | AC50 [1] | AC50 [2]
1 | CCN(CC)c1ccc(C=C2C(=O)N(C)C(=S)N(C)C2=O)o1 | 6.74 | 29.1 µM [falling, partial curve, poor fit] | –
2 | O=c1[nH]c(=S)n(C2CC2)c(O)c1C=Nc1ccc2c(c1)OCO2 | -0.951 | – | –
3 | COC(=O)C1=C(c2cccc(OCc3ccccc3)c2)C[C@@H]2CC[C@H]1N2C(=O)NNCc1ccccc1 | 13.8 | 0.00461 µM [rising, full curve, poor fit] | –
4 | O=[N+]([O-])c1ccc(C[n+]2c(-c3ccccc3)cc(-c3ccccc3)cc2-c2ccccc2)cc1 | -39.7 | 32.6 µM [falling, partial curve] | 32.6 µM [falling, partial curve, poor fit]
5 | Clc1ccc(C(c2ccc(Cl)cc2)n2cc[n+](CC(OCc3ccc(Cl)cc3Cl)c3ccc(Cl)cc3Cl)c2)cc1 (stereo not drawn) | -85.8 | 5.17 µM [falling, full curve] | 7.31 µM [falling, partial curve]
6 | COC(=O)C1=C(c2ccc(F)cc2OCc2ccccc2)C[C@@H]2CC[C@H]1N2C(=O)NCc1ccc(N(C)C)cc1 | -18.5 | 0.731 µM [falling, full curve] | –
7 | COc1ccc(CCC(=O)N2CCC3(CC2)OCCO3)cc1 | 7.03 | – | –
8 | CCOC(=O)c1c(C)[nH]c(C(=O)C(Cc2ccccc2)N(C)C)c1C (stereo not drawn) | – | 5.17 µM [rising, single point] | –
9 | COc1cccc(N2C(=O)NC(=O)/C(=C\c3ccc([N+](=O)[O-])s3)C2=O)c1 | -11.2 | – | –
10 | Cc1ccc(CN2C(=O)CN=C(c3ccccc3)c3ccccc32)cc1 | – | 29.1 µM [falling, single point] | –
11 | CCOC(=O)C(O)(c1ccc(NC(=O)NC2CCCCC2)cc1)C(F)(F)F (stereo not drawn) | 26.6 | 4.61 µM [rising, partial curve] | 1.64 µM [rising, full curve, poor fit]
12 | CCOC(=O)C1=C(N)OC2=C(C(=O)CC(C)(C)C2)C12C(=O)Nc1ccccc12 (stereo not drawn) | 7.76 | 0.00461 µM [falling, full curve, poor fit] | –
13 | Clc1cc(Cl)c(-c2cc(Cl)c(Cl)cc2Cl)cc1Cl | 12 | 4.61 µM [rising, single point] | –
14 | O=C(CSC1c2ccccc2-c2ccccc21)N/N=C/c1ccccc1C(=O)O | -1.04 | 3.66 µM [rising, single point] | –
15 | O=C1CC(c2ccccc2)CN1 (stereo not drawn) | -13.7 | – | –
16 | CN1CC(C(=O)c2ccccc2)C(c2ccccc2)C1 (stereo not drawn) | 0.518 | 0.082 µM [falling, full curve, poor fit] | –
17 | Cc1cc(O)c2c(c1)C(=O)C13C(=C2O)C(=O)[C@H]2[C@@H](O)[C@@H]1[C@H]1[C@H](O)[C@@H]3C(=O)C3=C(O)c4c(O)cc(C)cc4C(=O)C312 (stereo partly drawn) | – | 3.66 µM [falling, full curve] | –

Of the compounds above, these contain an aryl methoxy group.
Row | SMILES | cell number change [%] | AC50 [1] | AC50 [2]
7 | COc1ccc(CCC(=O)N2CCC3(CC2)OCCO3)cc1 | 7.03 | – | –
9 | COc1cccc(N2C(=O)NC(=O)/C(=C\c3ccc([N+](=O)[O-])s3)C2=O)c1 | -11.2 | – | –

Further compounds follow:

Row | SMILES | cell number change [%] | AC50 [1] | AC50 [2]
18 | Nc1ccc(Cl)cc1C(=O)c1ccccc1 | -26.4 | – | 0.731 µM [falling, single point]
19 | CCC(C)N1C(=O)/C(=C\c2ccc(N3CCCCCC3)cc2)C(=O)NC1=S (stereo not drawn) | -18.6 | 11.6 µM [rising, partial curve] | –
20 | O=[N+]([O-])c1ccc(N2CCCC2)c2ccncc12 | 29 | – | –
21 | COC(=O)Cn1cc(/C=C2\C(=O)NC(=O)N(c3ccc(OC)cc3)C2=O)c2ccccc21 | 12 | – | –
22 | C=CCN1C(=O)/C(=C\c2ccc(N3CCOCC3)o2)C(=O)NC1=S | 100 | 32.6 µM [rising, single point] | 2.31 µM [falling, partial curve, poor fit]
23 | O=C(CN1CCCCC1)c1ccccc1Cl | 76.3 | 2.31 µM [rising, single point] | 29.1 µM [rising, single point]
24 | COC(=O)C1=C(c2ccc(F)cc2OCc2ccccc2)C[C@@H]2CC[C@H]1N2C(=O)NCc1ccc(Br)cc1 | 4.33 | 29.1 µM [falling, partial curve, poor fit] | 1.16 µM [falling, single point]
25 | CCOC(=O)c1c(N)n(Cc2ccccc2)c2nc3ccccc3nc12 | 20.9 | 6.51 µM [falling, single point] | 6.51 µM [rising, single point]
26 | CN(C)/C=C/C(=O)C(Cl)(Cl)Cl | 3.45 | 0.58 µM [falling, full curve, poor fit] | 0.82 µM [falling, partial curve, poor fit]
27 | C[n+]1c(-c2ccccc2)cc(CCCCc2cc(-c3ccccc3)[n+](C)c(-c3ccccc3)c2)cc1-c1ccccc1 | -43.2 | 29.1 µM [falling, partial curve, poor fit] | –
28 | COC(=O)[C@@H]1[C@@H](C(=O)OC)C2(c3ccccc3-c3ccccc32)N(c2ccc(Cl)cc2)N1C#N | -76.1 | 5.17 µM [falling, partial curve] | 7.31 µM [falling, partial curve]
29 | COCCOC(=O)c1c(N)n(Cc2ccccc2)c2nc3ccccc3nc12 | 0.929 | 0.116 µM [rising, full curve, poor fit] | –
30 | CCCN(CCC)CCCNS(=O)(=O)c1ccc2c(c1)oc(=O)n2C | – | – | 3.66 µM [falling, single point]
31 | Fc1ccc(C2=CCN(C(c3ccc(Cl)cc3)c3nnnn3Cc3ccccc3)CC2)cc1 (stereo not drawn) | 64.2 | 4.61 µM [rising, full curve] | 13 µM [rising, partial curve, poor fit]
32 | CN1C2CCC1CC(OC(=O)c1cc(Cl)cc(Cl)c1)C2 (stereo not drawn) | – | 0.0731 µM [falling, full curve, poor fit] | –
33 | Cc1ccc(OCCn2cccc2/C=C2/C(=O)NC(=O)N(Cc3ccco3)C2=O)cc1 | 36.1 | 29.1 µM [rising, single point] | 16.4 µM [rising, single point]
34 | CCC(=NCCCN1CCOCC1)c1c(O)n(Cc2ccccc2)c(=O)[nH]c1=O | 28.5 | 3.66 µM [rising, partial curve] | –
